Data from US20060094059A1, “Methods for identifying new drug leads and new therapeutic uses for known drugs” (Odyssey Thera, Inc., priority 2004, published 2006).

Tests used:
Type in all cases: cell-based
[1] = test system: non-small cell lung carcinoma (A549) cells; test: MTT proliferation assay, NSCLC; conditions: Homo sapiens, Tumor Cell NSCLC (A549), 120 hours, read-out: Anti-proliferative IC-50
Experimental: (§1) Cells were maintained in various media as follows: A549, LoVo and PC-3 (Ham's F12K medium with 2 mM L-glutamine and 1.5 g/L sodium bicarbonate), MIA PaCa-2 (Dulbecco's modified Eagle's medium with 4 mM L-glutamine and 4.5 g/L glucose), U87-MG (MEM+Earle's BSS). Medium for each cell line was supplemented with 10% FBS and […] Penecillin/Streptomycin. All cells were grown in incubators set at 37° C., 5% CO2. Thiazolyl Blue Tetrazolium Bromide (MTT) based proliferation assays were performed to assess the anti-proliferative activities of the compounds on these cells. Cells were seeded in 96 well plates at a density of 750 cells/well 24 hours prior to compound treatment. The cells were incubated with varying concentrations of compounds for 120 hours. […] Drug treatment was performed in 5 replicate wells. Background absorbance was established by wells containing medium but no cells. Vehicle (DMSO) only was used as control. MTT (Sigma-Aldrich, St. Louis, Mo.) was added to each well at a final concentration of 0.5 mg/ml. Following a 2 hour incubation at 37° C., medium in the wells was replaced with 0.15 ml DMSO. The plates were agitated for 15 min using a microtiter plate shaker.

[2] = test system: colon adenocarcinoma (LoVo) cells; test: MTT proliferation assay, colon; conditions: Homo sapiens, Tumor Cell Colon (LoVo), 120 hours, read-out: Anti-proliferative IC-50
Experimental: as §1

[3] = test system: pancreatic carcinoma (MIA PaCa-2) cells; test: MTT proliferation assay, pancreatic; conditions: Homo sapiens, Tumor Cell Pancreatic (MIA PaCa-2), 120 hours, read-out: Anti-proliferative IC-50
Experimental: as §1

[4] = test system: prostate adenocarcinoma (PC-3) cells; test: MTT proliferation assay, prostate; conditions: Homo sapiens, Tumor Cell Prostate (PC-3), 120 hours, read-out: Anti-proliferative IC-50
Experimental: We used these methods to mine the known pharmacopeia for drugs with previously-unsuspected activity against cancer-related pathways. […] Hits from our cell-based screens were tested for antiproliferative activity in up to 5 different human tumor cell lines, as follows. First, drugs with significant activity in the cellular screen(s) were tested for their ability to block proliferation of a human tumor cell line (PC-3) at an initial concentration of 10 micromolar. For drugs with antiproliferative activity in PC-3 cells, dose-response curves to determine the IC50 for antiproliferative activity and additional tumor cell lines were tested to determine the breadth of activity. Methods for assessing the antiproliferative activity of the cell-based drug ‘hits’ are described below.
Cells were maintained in various media as follows: A549, LoVo and PC-3 (Ham's F12K medium with 2 mM L-glutamine and 1.5 g/L sodium bicarbonate), MIA PaCa-2 (Dulbecco's modified Eagle's medium with 4 mM L-glutamine and 4.5 g/L glucose), U87-MG (MEM+Earle's BSS). Medium for each cell line was supplemented with 10% FBS and […] Penecillin/Streptomycin. All cells were grown in incubators set at 37° C., 5% CO2. […] Background absorbance was established by wells containing medium but no cells. […]

[5] = test system: glioblastoma (U-87 MG) cells; test: MTT proliferation assay, glioblastoma; conditions: Homo sapiens, Tumor Cell Glioblastoma (U-87 MG), 120 hours, read-out: Anti-proliferative IC-50
Experimental: as §1

CC(C)OC(=O)C(C)(C)Oc1ccc(C(=O)c2ccc(Cl)cc2)cc1 [Fenofibrate]
IC50 [1]: 15.8 µM | IC50 [2]: 13.2 µM | IC50 [3]: 8.4 µM | IC50 [4]: 18 µM | IC50 [5]: 40 µM
